According to the supplement of paper PMC5355238:
Where a name gives a salt, the structure may show the parent alone. Some of the results follow. Most values lie at the level of the controls, where differences are scatter.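 Reh is a human leukemia cell line; the read-out is the median γH2AX antibody signal in S-phase cells by flow cytometry, with the score counting standard deviations from the median difference of each paired set of plates. Scores above 2.5 were called candidate hits, while scores below -2 mark compounds that lowered the MK1775-induced damage.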

These compounds were tested on Reh (assay: Z' of S-phase gammaH2AX difference (drug + MK1775 minus drug alone) (Z-score); higher = stronger synergistic S-phase DNA damage with MK1775). Conditions: MK1775 concentration 400 nM; first compound 10 µM; 4 h.

SMILES	Z' of S-phase gammaH2AX difference (Z-score)
Cc1ccc(NC(=O)c2ccc(CN3CCN(C)CC3)cc2)cc1Nc1nccc(-c2cccnc2)n1 [Imatinib (Gleevec)] + C=CCn1c(=O)c2cnc(Nc3ccc(N4CCN(C)CC4)cc3)nc2n1-c1cccc(C(C)(C)O)n1 [MK1775]	inactive: 0.0392
CN1CCN(C2Cc3ccccc3Sc3ccc(Cl)cc32)CC1 (stereo not drawn) [(?)-Octoclothepin maleate] + C=CCn1c(=O)c2cnc(Nc3ccc(N4CCN(C)CC4)cc3)nc2n1-c1cccc(C(C)(C)O)n1 [MK1775]	inactive: 0.626
CN[C@H](CC(=O)O)C(=O)O [N-Methyl-D-aspartic acid] + C=CCn1c(=O)c2cnc(Nc3ccc(N4CCN(C)CC4)cc3)nc2n1-c1cccc(C(C)(C)O)n1 [MK1775]	inactive: 0.665
C#Cc1cccc(Nc2ncnc3cc(OCCOC)c(OCCOC)cc23)c1 [Erlotinib HCl] + C=CCn1c(=O)c2cnc(Nc3ccc(N4CCN(C)CC4)cc3)nc2n1-c1cccc(C(C)(C)O)n1 [MK1775]	inactive: -0.0229
Cn1c(=O)c2[nH]c(-c3ccccc3)nc2n(C)c1=O [1,3-Dimethyl-8-phenylxanthine] + C=CCn1c(=O)c2cnc(Nc3ccc(N4CCN(C)CC4)cc3)nc2n1-c1cccc(C(C)(C)O)n1 [MK1775]	inactive: 0.32
OC[C@H]1NC[C@H](O)[C@@H](O)[C@@H]1O [1-Deoxynojirimycin hydrochloride] + C=CCn1c(=O)c2cnc(Nc3ccc(N4CCN(C)CC4)cc3)nc2n1-c1cccc(C(C)(C)O)n1 [MK1775]	inactive: -0.819
CC(C)C[C@@H](C(=O)N[C@H](C(=O)OC1CCCC1)c1ccccc1)[C@H](O)C(=O)NO [Tosedostat (CHR2797)] + C=CCn1c(=O)c2cnc(Nc3ccc(N4CCN(C)CC4)cc3)nc2n1-c1cccc(C(C)(C)O)n1 [MK1775]	inactive: 0.191
NCCCNCCCCNCCCN [Spermine tetrahydrochloride] + C=CCn1c(=O)c2cnc(Nc3ccc(N4CCN(C)CC4)cc3)nc2n1-c1cccc(C(C)(C)O)n1 [MK1775]	inactive: -0.136
CCN(CC)CCNC(=O)c1cc(Cl)c(N)cc1OC [Metoclopramide hydrochloride] + C=CCn1c(=O)c2cnc(Nc3ccc(N4CCN(C)CC4)cc3)nc2n1-c1cccc(C(C)(C)O)n1 [MK1775]	inactive: -0.262
CN(C)C/C=C(/c1ccc(Br)cc1)c1cccnc1 [Zimelidine dihydrochloride] + C=CCn1c(=O)c2cnc(Nc3ccc(N4CCN(C)CC4)cc3)nc2n1-c1cccc(C(C)(C)O)n1 [MK1775]	inactive: -1.41
N#C/C(=C\c1c[nH]c2ccccc12)C(=O)c1ccc(O)c(O)c1 [Tyrphostin AG 808] + C=CCn1c(=O)c2cnc(Nc3ccc(N4CCN(C)CC4)cc3)nc2n1-c1cccc(C(C)(C)O)n1 [MK1775]	inactive: -0.953
Cn1cnc2c1c(=O)[nH]c(=O)n2C [Theobromine] + C=CCn1c(=O)c2cnc(Nc3ccc(N4CCN(C)CC4)cc3)nc2n1-c1cccc(C(C)(C)O)n1 [MK1775]	inactive: 0.427
CO[C@H]1/C=C\C=C(/C)C(=O)NC2=CC(=O)C(NCCN(C)C)=C(C[C@@H](C)C[C@H](OC)[C@H](O)[C@@H](C)/C=C(\C)[C@@H]1OC(N)=O)C2=O [17-DMAG HCl (Alvespimycin)] + C=CCn1c(=O)c2cnc(Nc3ccc(N4CCN(C)CC4)cc3)nc2n1-c1cccc(C(C)(C)O)n1 [MK1775]	inactive: 0.273
NC/C=C/C(=O)O [(E)-4-amino-2-butenoic acid] + C=CCn1c(=O)c2cnc(Nc3ccc(N4CCN(C)CC4)cc3)nc2n1-c1cccc(C(C)(C)O)n1 [MK1775]	inactive: 0.103
CCN(CC)CCOC(=O)c1cc(Cl)c(N)cc1OC [SDZ-205,557 hydrochloride] + C=CCn1c(=O)c2cnc(Nc3ccc(N4CCN(C)CC4)cc3)nc2n1-c1cccc(C(C)(C)O)n1 [MK1775]	inactive: -0.39
CC(=O)N[C@@H](Cc1c[nH]c2ccccc12)C(=O)OCc1cc(C(F)(F)F)cc(C(F)(F)F)c1 + C=CCn1c(=O)c2cnc(Nc3ccc(N4CCN(C)CC4)cc3)nc2n1-c1cccc(C(C)(C)O)n1 [MK1775]	inactive: -0.114
CCN(c1nc(N)c(C(=O)NC(=N)N)nc1Cl)C(C)C [5-(N-Ethyl-N-isopropyl)amiloride] + C=CCn1c(=O)c2cnc(Nc3ccc(N4CCN(C)CC4)cc3)nc2n1-c1cccc(C(C)(C)O)n1 [MK1775]	inactive: 0.835

SMILES	Z' of S-phase gammaH2AX difference (Z-score)
O=C(O)Cc1c[nH]c2ccc(O)cc12 [5-Hydroxyindolacetic acid] + C=CCn1c(=O)c2cnc(Nc3ccc(N4CCN(C)CC4)cc3)nc2n1-c1cccc(C(C)(C)O)n1 [MK1775]	inactive: -1.08
CN(C)CCC=C1c2ccccc2COc2ccccc21 [Doxepin hydrochloride] + C=CCn1c(=O)c2cnc(Nc3ccc(N4CCN(C)CC4)cc3)nc2n1-c1cccc(C(C)(C)O)n1 [MK1775]	inactive: 0.658
CC(C)[N+](C)(CCOC(=O)C1c2ccccc2Oc2ccccc21)C(C)C [Propantheline bromide] + C=CCn1c(=O)c2cnc(Nc3ccc(N4CCN(C)CC4)cc3)nc2n1-c1cccc(C(C)(C)O)n1 [MK1775]	inactive: -0.252
C[S+]([O-])c1ccc(-c2nc(-c3ccc(F)cc3)c(-c3ccncc3)[nH]2)cc1 (stereo not drawn) + C=CCn1c(=O)c2cnc(Nc3ccc(N4CCN(C)CC4)cc3)nc2n1-c1cccc(C(C)(C)O)n1 [MK1775]	inactive: 0.153
NC[C@@H]1O[C@H](O[C@H]2[C@@H](O)[C@H](O[C@@H]3[C@@H](O)[C@H](N)C[C@H](N)[C@H]3O[C@H]3O[C@H](CO)[C@@H](O)[C@H](O)[C@H]3N)O[C@@H]2CO)[C@H](N)[C@@H](O)[C@@H]1O [Paromomycin sulfate] + C=CCn1c(=O)c2cnc(Nc3ccc(N4CCN(C)CC4)cc3)nc2n1-c1cccc(C(C)(C)O)n1 [MK1775]	inactive: 0.5
CC[C@]1(O)C[C@H]2CN(CCc3c([nH]c4ccccc34)[C@@](C(=O)OC)(c3cc4c(cc3OC)N(C=O)[C@H]3[C@@](O)(C(=O)OC)[C@H](OC(C)=O)[C@]5(CC)C=CCN6CC[C@]43[C@@H]65)C2)C1 [Vincristine] + C=CCn1c(=O)c2cnc(Nc3ccc(N4CCN(C)CC4)cc3)nc2n1-c1cccc(C(C)(C)O)n1 [MK1775]	inactive: -0.0288
CC[C@]1(O)C[C@H]2CN(CCc3c([nH]c4ccccc34)[C@@](C(=O)OC)(c3cc4c(cc3OC)N(C=O)[C@H]3[C@@](O)(C(=O)OC)[C@H](OC(C)=O)[C@]5(CC)C=CCN6CC[C@]43[C@@H]65)C2)C1 [Vincristine sulfate] + C=CCn1c(=O)c2cnc(Nc3ccc(N4CCN(C)CC4)cc3)nc2n1-c1cccc(C(C)(C)O)n1 [MK1775]	inactive: 0.00932
CCOc1ccc(Nc2nc(-c3c(C)nc4ccccn34)cs2)cc1 + C=CCn1c(=O)c2cnc(Nc3ccc(N4CCN(C)CC4)cc3)nc2n1-c1cccc(C(C)(C)O)n1 [MK1775]	inactive: -0.387
CN[C@@H](C)C(=O)N[C@H]1CN(C(=O)CC(C)C)CC[C@H]2CC[C@@H](C(=O)NC(c3ccccc3)c3ccccc3)N2C1=O + C=CCn1c(=O)c2cnc(Nc3ccc(N4CCN(C)CC4)cc3)nc2n1-c1cccc(C(C)(C)O)n1 [MK1775]	inactive: 0.755
COc1ccccc1N1CCN(CCCCN2C(=O)c3ccccc3C2=O)CC1 [NAN-190 hydrobromide] + C=CCn1c(=O)c2cnc(Nc3ccc(N4CCN(C)CC4)cc3)nc2n1-c1cccc(C(C)(C)O)n1 [MK1775]	inactive: -0.0582
Cc1cccc(C)c1OCC(C)N (stereo not drawn) [Mexiletene hydrochloride] + C=CCn1c(=O)c2cnc(Nc3ccc(N4CCN(C)CC4)cc3)nc2n1-c1cccc(C(C)(C)O)n1 [MK1775]	inactive: -0.0873
CCN(CC)CCNC(=O)c1c(C)[nH]c(/C=C2\C(=O)Nc3ccc(F)cc32)c1C [Sunitinib Malate (Sutent)] + C=CCn1c(=O)c2cnc(Nc3ccc(N4CCN(C)CC4)cc3)nc2n1-c1cccc(C(C)(C)O)n1 [MK1775]	inactive: -0.909
COc1ccc(/C=C/C(=O)Nc2ccccc2C(=O)O)cc1OC [Tranilast] + C=CCn1c(=O)c2cnc(Nc3ccc(N4CCN(C)CC4)cc3)nc2n1-c1cccc(C(C)(C)O)n1 [MK1775]	inactive: -1.41
Oc1ccc(/C=C/c2cc(O)cc(O)c2)cc1 [Resveratrol] + C=CCn1c(=O)c2cnc(Nc3ccc(N4CCN(C)CC4)cc3)nc2n1-c1cccc(C(C)(C)O)n1 [MK1775]	inactive: -0.374
CCOc1cc2ncc(C#N)c(Nc3ccc(F)c(Cl)c3)c2cc1NC(=O)/C=C/CN(C)C [Pelitinib (EKB-569)] + C=CCn1c(=O)c2cnc(Nc3ccc(N4CCN(C)CC4)cc3)nc2n1-c1cccc(C(C)(C)O)n1 [MK1775]	inactive: 1.14
CCCc1c(-c2ccc(O)cc2)nn(-c2ccc(O)cc2)c1-c1ccc(O)cc1 [1,3,5-tris(4-hydroxyphenyl)-4-propyl-1H-pyrazole] + C=CCn1c(=O)c2cnc(Nc3ccc(N4CCN(C)CC4)cc3)nc2n1-c1cccc(C(C)(C)O)n1 [MK1775]	inactive: 0.697

Another view of part of the listing above.

| SMILES | Z' of S-phase gammaH2AX difference (Z-score) |
| --- | --- |
| CC[C@]1(O)C[C@H]2CN(CCc3c([nH]c4ccccc34)[C@@](C(=O)OC)(c3cc4c(cc3OC)N(C=O)[C@H]3[C@@](O)(C(=O)OC)[C@H](OC(C)=O)[C@]5(CC)C=CCN6CC[C@]43[C@@H]65)C2)C1 [Vincristine] + C=CCn1c(=O)c2cnc(Nc3ccc(N4CCN(C)CC4)cc3)nc2n1-c1cccc(C(C)(C)O)n1 [MK1775] | inactive: -0.0288 |
| CC[C@]1(O)C[C@H]2CN(CCc3c([nH]c4ccccc34)[C@@](C(=O)OC)(c3cc4c(cc3OC)N(C=O)[C@H]3[C@@](O)(C(=O)OC)[C@H](OC(C)=O)[C@]5(CC)C=CCN6CC[C@]43[C@@H]65)C2)C1 [Vincristine sulfate] + C=CCn1c(=O)c2cnc(Nc3ccc(N4CCN(C)CC4)cc3)nc2n1-c1cccc(C(C)(C)O)n1 [MK1775] | inactive: 0.00932 |
| CCOc1ccc(Nc2nc(-c3c(C)nc4ccccn34)cs2)cc1 + C=CCn1c(=O)c2cnc(Nc3ccc(N4CCN(C)CC4)cc3)nc2n1-c1cccc(C(C)(C)O)n1 [MK1775] | inactive: -0.387 |
| CN[C@@H](C)C(=O)N[C@H]1CN(C(=O)CC(C)C)CC[C@H]2CC[C@@H](C(=O)NC(c3ccccc3)c3ccccc3)N2C1=O + C=CCn1c(=O)c2cnc(Nc3ccc(N4CCN(C)CC4)cc3)nc2n1-c1cccc(C(C)(C)O)n1 [MK1775] | inactive: 0.755 |
| COc1ccccc1N1CCN(CCCCN2C(=O)c3ccccc3C2=O)CC1 [NAN-190 hydrobromide] + C=CCn1c(=O)c2cnc(Nc3ccc(N4CCN(C)CC4)cc3)nc2n1-c1cccc(C(C)(C)O)n1 [MK1775] | inactive: -0.0582 |
| Cc1cccc(C)c1OCC(C)N (stereo not drawn) [Mexiletene hydrochloride] + C=CCn1c(=O)c2cnc(Nc3ccc(N4CCN(C)CC4)cc3)nc2n1-c1cccc(C(C)(C)O)n1 [MK1775] | inactive: -0.0873 |
| CCN(CC)CCNC(=O)c1c(C)[nH]c(/C=C2\C(=O)Nc3ccc(F)cc32)c1C [Sunitinib Malate (Sutent)] + C=CCn1c(=O)c2cnc(Nc3ccc(N4CCN(C)CC4)cc3)nc2n1-c1cccc(C(C)(C)O)n1 [MK1775] | inactive: -0.909 |
| COc1ccc(/C=C/C(=O)Nc2ccccc2C(=O)O)cc1OC [Tranilast] + C=CCn1c(=O)c2cnc(Nc3ccc(N4CCN(C)CC4)cc3)nc2n1-c1cccc(C(C)(C)O)n1 [MK1775] | inactive: -1.41 |
| Oc1ccc(/C=C/c2cc(O)cc(O)c2)cc1 [Resveratrol] + C=CCn1c(=O)c2cnc(Nc3ccc(N4CCN(C)CC4)cc3)nc2n1-c1cccc(C(C)(C)O)n1 [MK1775] | inactive: -0.374 |
